Assay [1] addresses human NRP1 protein (human) (UniProt O14786). In words: ELISA and SPR analysis, IgG on human NRP1. For orientation: In an ELISA, binding on a coated surface is turned into a signal by an enzyme label.
Assay [2] shares this target. In words: specificity analysis against proteins structurally similar to human NRP1 (FIG. 15).

By UniProt entry, the sequences of proteins in these tests, tags left out. Where a name states a change or a piece, a line headed by the entry shows the natural chain unless it says otherwise. Chains listed by the source or under a name are the forms on record and can include a tag or linker.
human NRP1 protein (O14786, form named): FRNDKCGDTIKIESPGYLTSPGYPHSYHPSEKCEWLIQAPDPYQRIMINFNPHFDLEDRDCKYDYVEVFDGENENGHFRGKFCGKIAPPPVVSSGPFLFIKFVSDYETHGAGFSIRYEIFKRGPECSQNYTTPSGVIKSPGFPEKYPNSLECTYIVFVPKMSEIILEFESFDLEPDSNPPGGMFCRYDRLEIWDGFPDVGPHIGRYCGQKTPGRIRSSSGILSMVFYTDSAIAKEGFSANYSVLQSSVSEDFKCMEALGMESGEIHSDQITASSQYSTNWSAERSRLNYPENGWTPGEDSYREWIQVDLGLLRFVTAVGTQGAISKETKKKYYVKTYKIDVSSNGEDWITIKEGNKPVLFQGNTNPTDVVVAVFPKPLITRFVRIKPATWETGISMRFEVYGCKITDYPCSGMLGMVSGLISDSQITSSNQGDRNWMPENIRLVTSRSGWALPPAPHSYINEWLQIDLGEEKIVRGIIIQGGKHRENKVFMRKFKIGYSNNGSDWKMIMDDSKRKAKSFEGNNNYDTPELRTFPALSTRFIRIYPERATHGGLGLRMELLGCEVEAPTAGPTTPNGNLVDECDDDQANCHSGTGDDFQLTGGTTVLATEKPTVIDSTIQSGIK

Residue numbers refer to the chain shown, from its start. Results are given in words; binding and its absence hold for the method and conditions named. Some entries that bind do so weakly or less than the wild type.

B1: 1A03 anti-NRP1 IgG (antibody, V domains shown)
VH: EVQLLESGGGLVQPGGSLRLSCAASGFTFSSYYMSWVRQAPGKGLEWVSAISPGSSNKYYADSVQGRFTISRDNSKNTLYLQMNSLRAEDTAVYYCARRKKSFDYWGQGTLVTVSS
VL: QSVLTQPPSASGTPGQRVTISCSGPSSNIGNNDVSWYQQLPGTAPKLLIYSDNNRPSGVPDRFSGSKSGTSASLAISGLRSEDEADYYCGAWVASLSAYVFGGGTKLTVL
With B1, the binding entry in assay [1] and in assay [2] was “binds” in each case.

B2: IRCR-101 (3H10) anti-NRP1 IgG (antibody, V domains shown)
VH: B1 VH with Q65K, K101Y, S102M
VL: B1 VL with S23T, P25S, S35Y, N53S, G90A, A91S, V93D, A94S, A98G
For B2, the binding entry in assay [1] and in assay [2] was “binds” each time.

The values are drawn from US20170291948A1.
